# Source: the supplement of paper PMC12067093, “Discovery and optimisation of a covalent ligand for TRIM25 and its application to targeted protein ubiquitination” (Chemical Science, 2025)
# Chains of the proteins cited; added tags and fusions are not shown. Lines headed by an entry give the natural chain unless they say otherwise; changes in a name come on top.
# UniProt Q70CQ2: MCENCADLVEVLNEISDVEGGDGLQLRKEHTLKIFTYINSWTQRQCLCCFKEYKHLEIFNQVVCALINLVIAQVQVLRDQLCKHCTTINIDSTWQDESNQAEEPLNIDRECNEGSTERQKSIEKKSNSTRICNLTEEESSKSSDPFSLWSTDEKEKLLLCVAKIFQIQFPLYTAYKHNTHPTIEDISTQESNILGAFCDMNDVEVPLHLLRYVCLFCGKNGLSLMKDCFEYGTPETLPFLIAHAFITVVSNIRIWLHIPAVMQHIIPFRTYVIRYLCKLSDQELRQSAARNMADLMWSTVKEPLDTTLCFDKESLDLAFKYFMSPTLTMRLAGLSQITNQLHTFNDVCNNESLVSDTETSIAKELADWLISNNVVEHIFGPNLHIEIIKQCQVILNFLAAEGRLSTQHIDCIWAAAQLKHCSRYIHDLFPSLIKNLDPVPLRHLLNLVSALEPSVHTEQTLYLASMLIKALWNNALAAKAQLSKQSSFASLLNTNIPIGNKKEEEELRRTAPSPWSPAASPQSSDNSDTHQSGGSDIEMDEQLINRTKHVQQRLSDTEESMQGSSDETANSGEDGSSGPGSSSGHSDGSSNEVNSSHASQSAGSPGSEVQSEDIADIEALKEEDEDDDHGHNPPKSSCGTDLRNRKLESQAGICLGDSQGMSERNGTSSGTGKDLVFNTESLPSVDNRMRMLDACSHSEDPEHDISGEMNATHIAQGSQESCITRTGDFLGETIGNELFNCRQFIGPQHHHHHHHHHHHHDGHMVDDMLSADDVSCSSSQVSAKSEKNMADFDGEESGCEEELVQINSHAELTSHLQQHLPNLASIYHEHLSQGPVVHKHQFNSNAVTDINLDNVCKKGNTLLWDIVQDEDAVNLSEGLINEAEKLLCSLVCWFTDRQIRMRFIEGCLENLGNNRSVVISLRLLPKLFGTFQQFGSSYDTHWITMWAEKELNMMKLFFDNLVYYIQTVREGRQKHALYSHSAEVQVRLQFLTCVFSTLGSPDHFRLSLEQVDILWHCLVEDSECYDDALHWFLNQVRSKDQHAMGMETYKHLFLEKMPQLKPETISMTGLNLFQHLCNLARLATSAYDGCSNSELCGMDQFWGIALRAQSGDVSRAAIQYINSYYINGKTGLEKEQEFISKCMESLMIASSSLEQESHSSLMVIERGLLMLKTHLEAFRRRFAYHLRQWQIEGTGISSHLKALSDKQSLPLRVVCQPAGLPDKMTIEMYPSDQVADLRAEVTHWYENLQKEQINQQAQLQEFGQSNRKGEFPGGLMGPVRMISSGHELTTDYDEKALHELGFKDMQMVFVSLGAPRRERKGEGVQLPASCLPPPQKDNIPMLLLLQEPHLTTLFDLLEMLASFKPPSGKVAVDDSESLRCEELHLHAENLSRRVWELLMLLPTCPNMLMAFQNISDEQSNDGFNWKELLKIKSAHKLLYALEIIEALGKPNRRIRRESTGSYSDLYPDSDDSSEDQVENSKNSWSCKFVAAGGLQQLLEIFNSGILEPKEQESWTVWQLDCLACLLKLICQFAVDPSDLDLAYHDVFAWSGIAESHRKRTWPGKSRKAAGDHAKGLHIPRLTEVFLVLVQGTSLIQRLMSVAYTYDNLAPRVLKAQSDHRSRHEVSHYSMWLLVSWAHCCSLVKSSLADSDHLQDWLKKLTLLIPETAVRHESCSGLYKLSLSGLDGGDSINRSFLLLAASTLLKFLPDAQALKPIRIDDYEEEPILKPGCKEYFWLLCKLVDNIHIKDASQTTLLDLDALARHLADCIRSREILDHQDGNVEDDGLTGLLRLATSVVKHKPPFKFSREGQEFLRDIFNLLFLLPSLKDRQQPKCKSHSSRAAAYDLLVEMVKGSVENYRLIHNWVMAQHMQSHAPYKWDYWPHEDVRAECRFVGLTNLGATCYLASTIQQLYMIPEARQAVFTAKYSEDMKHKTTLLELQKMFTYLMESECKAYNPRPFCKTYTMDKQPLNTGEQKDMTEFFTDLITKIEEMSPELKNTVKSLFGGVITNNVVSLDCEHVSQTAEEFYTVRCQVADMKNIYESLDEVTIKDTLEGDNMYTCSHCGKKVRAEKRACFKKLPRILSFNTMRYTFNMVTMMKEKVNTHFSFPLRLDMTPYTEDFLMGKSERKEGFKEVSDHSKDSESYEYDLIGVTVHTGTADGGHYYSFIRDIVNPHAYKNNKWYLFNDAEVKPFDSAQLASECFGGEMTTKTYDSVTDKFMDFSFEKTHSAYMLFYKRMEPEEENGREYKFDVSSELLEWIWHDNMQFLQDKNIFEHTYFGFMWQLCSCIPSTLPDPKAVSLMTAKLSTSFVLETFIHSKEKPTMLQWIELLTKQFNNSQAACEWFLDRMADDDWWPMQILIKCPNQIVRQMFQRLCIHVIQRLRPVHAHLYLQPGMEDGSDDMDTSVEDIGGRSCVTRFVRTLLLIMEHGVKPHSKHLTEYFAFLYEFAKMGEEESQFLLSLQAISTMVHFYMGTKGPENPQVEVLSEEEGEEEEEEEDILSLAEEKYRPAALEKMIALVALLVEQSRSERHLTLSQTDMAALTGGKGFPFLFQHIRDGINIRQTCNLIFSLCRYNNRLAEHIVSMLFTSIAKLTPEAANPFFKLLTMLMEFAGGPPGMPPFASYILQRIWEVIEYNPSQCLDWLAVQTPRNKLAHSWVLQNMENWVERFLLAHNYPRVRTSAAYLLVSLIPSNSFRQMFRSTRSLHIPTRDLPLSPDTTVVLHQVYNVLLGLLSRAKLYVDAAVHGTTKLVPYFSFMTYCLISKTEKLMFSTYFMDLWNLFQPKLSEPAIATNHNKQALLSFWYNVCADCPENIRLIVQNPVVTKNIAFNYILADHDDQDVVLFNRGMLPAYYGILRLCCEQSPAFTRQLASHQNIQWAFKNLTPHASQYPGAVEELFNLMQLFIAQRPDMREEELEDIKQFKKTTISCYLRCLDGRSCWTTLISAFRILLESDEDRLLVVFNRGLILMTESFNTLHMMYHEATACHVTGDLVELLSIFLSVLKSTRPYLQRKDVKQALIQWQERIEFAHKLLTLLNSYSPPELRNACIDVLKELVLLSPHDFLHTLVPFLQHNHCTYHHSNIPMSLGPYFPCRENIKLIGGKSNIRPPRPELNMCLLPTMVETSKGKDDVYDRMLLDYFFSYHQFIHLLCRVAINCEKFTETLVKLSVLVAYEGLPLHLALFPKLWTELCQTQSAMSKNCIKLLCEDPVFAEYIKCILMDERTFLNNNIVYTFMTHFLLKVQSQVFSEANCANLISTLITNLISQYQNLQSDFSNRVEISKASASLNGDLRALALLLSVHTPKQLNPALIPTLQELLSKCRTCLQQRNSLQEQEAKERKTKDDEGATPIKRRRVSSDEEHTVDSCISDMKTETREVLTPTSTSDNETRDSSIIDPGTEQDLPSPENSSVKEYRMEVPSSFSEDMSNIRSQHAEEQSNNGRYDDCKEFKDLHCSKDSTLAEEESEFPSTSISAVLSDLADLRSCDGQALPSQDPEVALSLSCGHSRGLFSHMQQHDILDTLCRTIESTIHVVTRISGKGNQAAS
# UniProt A0JNW5: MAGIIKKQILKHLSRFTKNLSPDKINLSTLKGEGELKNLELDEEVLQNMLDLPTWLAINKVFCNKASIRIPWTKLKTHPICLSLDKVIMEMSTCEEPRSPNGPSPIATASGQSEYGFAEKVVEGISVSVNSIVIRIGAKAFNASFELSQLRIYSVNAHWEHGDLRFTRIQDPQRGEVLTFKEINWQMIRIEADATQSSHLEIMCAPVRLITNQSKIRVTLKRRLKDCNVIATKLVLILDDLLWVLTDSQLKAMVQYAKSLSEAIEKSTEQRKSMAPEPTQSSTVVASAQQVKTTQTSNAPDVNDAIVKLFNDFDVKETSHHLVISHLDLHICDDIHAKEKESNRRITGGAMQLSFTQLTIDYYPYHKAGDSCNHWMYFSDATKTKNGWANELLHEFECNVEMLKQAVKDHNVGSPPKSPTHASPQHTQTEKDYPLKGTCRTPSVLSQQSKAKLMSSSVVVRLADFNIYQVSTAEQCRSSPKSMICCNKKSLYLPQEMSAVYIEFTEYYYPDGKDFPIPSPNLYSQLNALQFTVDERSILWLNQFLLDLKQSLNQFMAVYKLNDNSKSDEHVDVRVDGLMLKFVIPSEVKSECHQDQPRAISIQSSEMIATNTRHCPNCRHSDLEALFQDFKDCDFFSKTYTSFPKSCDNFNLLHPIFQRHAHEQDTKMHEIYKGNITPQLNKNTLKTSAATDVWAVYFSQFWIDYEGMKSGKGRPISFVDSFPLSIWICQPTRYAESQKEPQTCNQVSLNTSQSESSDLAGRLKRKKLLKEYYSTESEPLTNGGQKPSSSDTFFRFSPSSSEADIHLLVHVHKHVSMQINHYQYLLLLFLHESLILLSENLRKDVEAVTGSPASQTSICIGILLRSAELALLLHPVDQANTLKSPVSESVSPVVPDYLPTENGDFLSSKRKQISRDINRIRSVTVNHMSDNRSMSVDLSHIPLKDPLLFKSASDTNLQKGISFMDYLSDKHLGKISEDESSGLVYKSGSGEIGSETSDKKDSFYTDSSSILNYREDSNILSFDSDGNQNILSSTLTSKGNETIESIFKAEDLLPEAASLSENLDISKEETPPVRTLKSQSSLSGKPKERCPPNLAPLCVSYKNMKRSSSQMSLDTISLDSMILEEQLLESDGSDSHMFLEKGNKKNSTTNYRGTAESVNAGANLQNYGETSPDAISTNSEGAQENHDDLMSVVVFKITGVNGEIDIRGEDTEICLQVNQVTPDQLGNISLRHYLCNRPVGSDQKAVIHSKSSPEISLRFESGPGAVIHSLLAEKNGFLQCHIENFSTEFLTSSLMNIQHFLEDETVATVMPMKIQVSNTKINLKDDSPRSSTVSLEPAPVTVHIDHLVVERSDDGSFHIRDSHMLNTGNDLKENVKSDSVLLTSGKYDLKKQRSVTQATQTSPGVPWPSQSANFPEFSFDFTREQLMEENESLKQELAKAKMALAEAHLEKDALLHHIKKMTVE
# UniProt Q16851: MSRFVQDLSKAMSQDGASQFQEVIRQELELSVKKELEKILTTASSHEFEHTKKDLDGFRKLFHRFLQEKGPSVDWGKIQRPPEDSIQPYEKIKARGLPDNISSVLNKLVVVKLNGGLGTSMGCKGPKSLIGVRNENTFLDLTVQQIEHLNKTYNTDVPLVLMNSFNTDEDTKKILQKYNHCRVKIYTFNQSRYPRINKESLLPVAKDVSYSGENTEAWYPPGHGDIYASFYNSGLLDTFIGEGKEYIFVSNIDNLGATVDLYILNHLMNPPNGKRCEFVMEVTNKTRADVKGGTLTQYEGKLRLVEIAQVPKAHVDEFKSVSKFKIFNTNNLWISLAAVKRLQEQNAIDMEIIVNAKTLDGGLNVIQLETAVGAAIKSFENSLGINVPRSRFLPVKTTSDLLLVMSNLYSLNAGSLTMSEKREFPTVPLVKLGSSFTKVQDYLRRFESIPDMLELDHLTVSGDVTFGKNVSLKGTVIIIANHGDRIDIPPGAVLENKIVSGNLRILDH
# UniProt P17480: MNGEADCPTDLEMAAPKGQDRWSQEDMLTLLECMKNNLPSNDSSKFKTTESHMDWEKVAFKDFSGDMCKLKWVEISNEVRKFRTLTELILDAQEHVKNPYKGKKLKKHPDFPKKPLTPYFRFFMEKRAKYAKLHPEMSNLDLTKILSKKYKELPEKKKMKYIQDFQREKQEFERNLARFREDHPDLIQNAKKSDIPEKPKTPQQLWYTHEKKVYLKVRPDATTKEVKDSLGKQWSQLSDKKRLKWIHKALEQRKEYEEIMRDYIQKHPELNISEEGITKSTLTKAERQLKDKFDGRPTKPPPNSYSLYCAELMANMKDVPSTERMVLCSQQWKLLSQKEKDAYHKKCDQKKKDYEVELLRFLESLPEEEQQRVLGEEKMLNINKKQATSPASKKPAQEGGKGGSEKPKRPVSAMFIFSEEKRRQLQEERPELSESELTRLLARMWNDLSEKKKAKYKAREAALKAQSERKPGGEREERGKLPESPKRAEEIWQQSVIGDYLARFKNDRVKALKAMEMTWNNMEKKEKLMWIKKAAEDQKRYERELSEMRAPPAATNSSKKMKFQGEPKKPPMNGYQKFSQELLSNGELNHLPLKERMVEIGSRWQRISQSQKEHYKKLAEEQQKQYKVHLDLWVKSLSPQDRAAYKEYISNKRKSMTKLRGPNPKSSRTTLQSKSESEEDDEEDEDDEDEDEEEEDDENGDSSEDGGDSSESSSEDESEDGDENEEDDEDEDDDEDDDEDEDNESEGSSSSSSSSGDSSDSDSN
# UniProt P10746: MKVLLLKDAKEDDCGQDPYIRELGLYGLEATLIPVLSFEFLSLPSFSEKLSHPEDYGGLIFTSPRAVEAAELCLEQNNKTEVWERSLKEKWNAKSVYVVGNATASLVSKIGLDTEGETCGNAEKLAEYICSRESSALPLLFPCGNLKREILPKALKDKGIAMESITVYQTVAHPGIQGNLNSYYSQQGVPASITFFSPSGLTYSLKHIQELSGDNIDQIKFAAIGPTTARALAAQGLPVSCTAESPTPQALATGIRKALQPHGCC
# The list shows a part of the results.
# Compound: CC1Cc2ccccc2N1C(=O)C1CCCN(C1)C(=O)CCl (mixture of isomers) [TRIM25 ligand 11 (diastereomer mixture)]
# Assay: probe-labelled cysteine peptide fold change vs DMSO (competition) (log2 fold change); higher = less target engagement (more negative = stronger competition)
# Conditions: THP-1, incubation time: 4 h
# 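Also: competitive chemoproteomic profiling in live THP-1 cells with an iodoacetamide desthiobiotin (IA-DTB) probe, comparing probe-labelled peptide intensities in compound-treated cells against DMSO-treated controls.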
Target,probe-labelled cysteine peptide fold change (10 µM),probe-labelled cysteine peptide fold change (50 µM)
USP34_Q70CQ2_2033_CQVADMK (UniProt Q70CQ2),0.0209,0.0671
UHRF1BP1L_A0JNW5_592_SECHQDQPR (UniProt A0JNW5),0.265,-0.193
UGP2_Q16851_276_CEFVMEVTNK (UniProt Q16851),0.0377,0.225
UQCRC2_P22695_192_NALANPLYCPDYR (UniProt P22695),0.0898,0.0363
UNK_Q9C0B0_100_YDEATGLCPEGDECPFLHR (UniProt Q9C0B0),0.613,0.284
UNC45A_Q9H3U1_395_LCENYIK (UniProt Q9H3U1),-0.0032,0.135
UNC119_Q13432_190_NTCEHIYDFPPLSEELISEMIR (UniProt Q13432),-0.435,-0.155
UBTF_P17480_68_DFSGDMCK (UniProt P17480),0.00494,0.0183
URB1_O60287_78_ISVECVEIFQLLSGEK (UniProt O60287),0.353,0.349
UNG_P13051_166_VVILGQDPYHGPNQAHGLCFSVQRPVPPPPSLENIYK (UniProt P13051),-0.142,-0.26
UHRF1BP1L_A0JNW5_81_THPICLSLDK (UniProt A0JNW5),-0.0635,-0.0442
UHRF2_Q96PU4_14_TCTIEDVSR (UniProt Q96PU4),-0.0173,-0.103
UROS_P10746_265_ALQPHGCC (UniProt P10746),0.0492,-0.0435
USP7_Q93009_510_HCTNAYMLVYIR (UniProt Q93009),-0.0145,-0.119
UROS_P10746_119_IGLDTEGETCGNAEK (UniProt P10746),0.0467,-0.148

# An excerpt of these results, bar-delimited.
Target | probe-labelled cysteine peptide fold change (10 µM) | probe-labelled cysteine peptide fold change (50 µM)
UBTF_P17480_68_DFSGDMCK (UniProt P17480) | 0.00494 | 0.0183
UNG_P13051_166_VVILGQDPYHGPNQAHGLCFSVQRPVPPPPSLENIYK (UniProt P13051) | -0.142 | -0.26
